What all share (test): fluorescence anisotropy
The target of one data set is YB-1(FL) (UniProt P67809). The following applies: EC50, lower end of stated range 1100-3100 nM; phosphate on the 17-mer (printed as 5'-pAAACGTCAGGGTCTTCC); 50 mM Tris-HCl pH 8.0, 40 mM NaCl, 1 mM DTT, 100 ug/ml BSA, 50 nM FAM-DNA, 25 C (anisotropy); recombinant protein; residues 1-324; label: 5'-FAM on strand 1.
A further data set has as its target YB-1 (Δ1) (UniProt P67809). The following applies: EC50 within 1100-3100 nM, exact value only in figure; phosphate on the 17-mer (printed as 5'-pAAACGTCAGGGTCTTCC); 50 mM Tris-HCl pH 8.0, 40 mM NaCl, 1 mM DTT, 100 ug/ml BSA, 50 nM FAM-DNA, 25 C (anisotropy); recombinant protein; label: 5'-FAM on strand 1.
A further data set concerns the target YB-1 (Δ1-2-3) (UniProt P67809). As to conditions: EC50, upper end of stated range, ~3-fold weaker than FL; phosphate on the 17-mer (printed as 5'-pAAACGTCAGGGTCTTCC); 50 mM Tris-HCl pH 8.0, 40 mM NaCl, 1 mM DTT, 100 ug/ml BSA, 50 nM FAM-DNA, 25 C (anisotropy); recombinant protein; label: 5'-FAM on strand 1.

Amino acid sequences for entries named in this document (tags omitted). Residues count along the entry.
UniProt P67809, 1-279, stated change not applied: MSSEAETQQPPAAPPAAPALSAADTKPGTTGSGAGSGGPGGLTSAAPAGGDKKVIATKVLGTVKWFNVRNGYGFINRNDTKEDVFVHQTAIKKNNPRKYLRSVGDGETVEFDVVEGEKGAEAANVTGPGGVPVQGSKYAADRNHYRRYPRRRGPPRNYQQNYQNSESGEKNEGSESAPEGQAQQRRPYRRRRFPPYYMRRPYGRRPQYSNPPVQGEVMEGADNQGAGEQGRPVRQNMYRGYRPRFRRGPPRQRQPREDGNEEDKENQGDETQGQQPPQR
UniProt P67809, 1-184, stated change not applied: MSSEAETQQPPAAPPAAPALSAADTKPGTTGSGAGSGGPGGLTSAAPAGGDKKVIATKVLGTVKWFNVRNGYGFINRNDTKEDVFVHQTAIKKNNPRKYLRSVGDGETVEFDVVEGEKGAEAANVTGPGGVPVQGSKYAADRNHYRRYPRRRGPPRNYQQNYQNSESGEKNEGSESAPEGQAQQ

For at least one entry, the source does not settle the construct or the ends of the probe. For part of these data: At least one verdict rests on a figure or table, not on a statement of the authors.

With “CCGCTATTTCAACCCTTTGCAGTCCCAGAAGG / GGGTTGAAATAGCGG / CCTTCTGGGACTGCAAA [Nick (FAM-labeled nicked DNA duplex)]”, the half-maximal binding with YB-1(FL) was determined as 1100 nM; with YB-1 (Δ1-2-3), 3.1 µM. Moreover, the binding result in the data set with YB-1 (Δ1) is “binds”.

Source of the values: article PMC9253770.
